Source: PMC8041927
Results are given in words; binding and its absence hold for the method and conditions named. Binding seen in cells or lysates may run through a third protein. Some entries that bind do so weakly or less than the wild type.

Biological target: Flag-FTO (UniProt Q9C0B1)
Assay: co-IP; HeLa cells transfected with Flag-EV, Flag-FTO, HA-p62 WT or HA-p62 ΔUBA; immunoprecipitation and blot for Flag-FTO and HA-p62; cells fixed with 0.4% formaldehyde, harvested in lysis buffer with 1% SDS and boiled, diluted, IP at 4 °C for 1.5 h; which tag was precipitated is not said

For HA-p62 WT (from UniProt Q13501 1-440), which binding is on record?
Its binding is “binds”.
